Laboratory results taken from patent publication US4347319A, “Microbiological epoxidation process” (priority 1980, dated 1982).

How the values were obtained:
[1] = test system: purified secondary alcohol dehydrogenase from Pichia sp. NRRL Y-11,328; experiment: Substrate specificity, electron acceptor and stoichiometry of purified yeast SADH; assay type: biochemical; conditions: stoichiometry; for NAD^+ Reduced: isopropanol 5.7, 2-butanol 6.0 μmoles, 340 nm; for Product Formed: isopropanol 5.7 to acetone, 2-butanol 6.0 μmoles to 2-butanone, gas chromatography
[2] = test system: cell fractions of Methylosinus trichosporium (OB3b, NRRL B-11,196); assay type: biochemical; conditions: S(80); propylene-epoxidizing / methane-hydroxylating activity
Experimental: Cells were washed twice with 25 mM potassium phosphate buffer, pH 7.0 containing 5 mM MgCl2. Cells were suspended in the same buffer. The cell suspensions at 4° C. were disintegrated by a single passage through a French Pressure cell (15,000 lb./in.^2) and centrifuged at 5000×g. for 15 min. to remove unbroken bacteria. The supernatant solution (crude extract) was then centrifuged at 40,000×g. for 30 min., yielding particulate P(40) and soluble S(40) fractions. The S(40) fraction was subsequently centrifuged at 80,000×g. for 60 min., yielding particulate P(80) and soluble S(80) fractions. The particulate fractions [P(40) and P(80)] were suspended in 25 mM potassium phosphate buffer, pH 7.0, containing 5 mM MgCl2 and homogenized at 4° C.
The oxidation of methane and propylene by particulate [(P)40 and (P)80] fractions and soluble [S(80)] fraction was measured at 30° C. by estimating the production of methanol and propylene oxide, respectively. The reaction mixtures contained in […]: 150 mM potassium phosphate buffer, pH 7.0 containing 5 mM MgCl2 b, 0.6 ml; 10μ moles NADH, and cellular fraction.
Reaction mixtures were contained in 10 ml vials at 4° C. […]
Specific activities were expressed as μ moles of products formed per hour per mg. protein. Concentrations of protein in various fractions were determined by the method of Lowry et al., J. Biol. Chem., 193: 265-275 (1951).

Row | Structure (SMILES) | NAD^+ Reduced [1] [µmol] | Product Formed [1] [µmol] | % Distribution in Cell Fraction [2] [%]
1 | CCC(C)O (stereo not drawn) [2-Butanol] | 5.9 | 5.7 | 
2 | CC(C)O [Isopropanol] | 5.4 | 5.5 | 
3 | C [Methane] |  |  | 0
4 | C=CC [Propylene] |  |  | 0
